Experimental data published in US5698571A, “5-HT1F mediated inhibition of neurogenic meningeal extravasation: a method for the treatment of migraine” (Eli Lilly and Company, priority 1994, dated 1997).

Tested on: 5-HT1F mediated inhibition of neuronal protein extravasation
Test: Specificity Index: vasoconstriction relative to 5-HT1F mediated inhibition of neuronal protein extravasation

Structure (SMILES) | S[…] (RATIO B/A)
CCN(CC)C1CCc2cccc(Cl)c2C1.Cl (centres unmarked) [Compound IV, 8-chloro-2-diethylamino-1,2,3,4-tetrahydronaphthalene hydrochloride] | 0.01
CN(C)C1CCc2[nH]c3ccc(O)cc3c2C1 (centres unmarked) [Compound V, 6-hydroxy-3-dimethylamino-1,2,3,4-tetrahydrocarbazole] | > 923
